Experimental data taken from PubChem BioAssay AID2685 (National Center for Advancing Translational Sciences (NCATS), 2010).
Some of the results follow. The main result of the screen is listed elsewhere. These columns were measured beside it and carry no call. Compounds called inactive in the main read-out are mostly missing here. Words in brackets tell the shape of the fitted curve; partial curves, single points and poor fits give uncertain potencies.

Test: qHTS Assay for Lipid Storage Modulators in Drosophila S3 Cells;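 for cell number change: cells counted by Cell Tracker Red CMTPX staining in the red channel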
Details: BODIPY lipid droplet fluorescence, 18-24 h; for cell number change: measured here: cell count max response, cells fed with added oleic acid
Outline: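 Laser-scanning cytometry quantifies lipid droplet accumulation (500–530 nm total intensity; droplet/cell object ratio) in oleic acid-fed (400 uM added) Drosophila S3 cells treated with a concentration series. 20 uM Triacsin C defined 100% inhibition.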

[1] = measured here: cell number channel AC50, cells fed with added oleic acid
[2] = measured here: lipid fluorescence (Fed channel) AC50, cells fed with added oleic acid

SMILES	AC50 [1]	AC50 [2]	cell number change [%]
CCn1c(CSc2ncccn2)nnc1SCC(=O)N1c2ccccc2CC1C (stereo not given)	0.58 µM [rising, single point]	–	–
O=C(OCC(=O)N1CCc2ccccc21)C1=COCCO1	–	0.00731 µM [falling, full curve, poor fit]	–
CCc1nnc(NC(=O)CSc2nnc(-c3cccnc3)n2CCc2ccccc2)s1	–	8.2 µM [rising, partial curve]	18.1
CCOc1ccccc1C(=O)NCC(=O)N(C)Cc1cccnc1	–	29.1 µM [rising, single point]	-21.4
O=C(CSc1cccc[n+]1[O-])N1CCCCCC1	–	–	26
COc1ccc(NC(=O)Nc2ccc(Cc3ccncc3)cc2)cc1OC	–	0.231 µM [rising, full curve]	26.1
COc1cc(NC(=O)c2ccccc2F)ccc1NC(=O)c1ccccc1Cl	0.461 µM [rising, full curve, poor fit]	–	–
COc1ccc(-n2nnc3c(=O)n(CC(=O)N4CCC(C)CC4)cnc32)cc1	10.3 µM [rising, partial curve, poor fit]	–	44.9
COc1ccc(-c2cc(C(=O)N3CC4(C)CC3CC(C)(C)C4)no2)cc1 (stereo not given)	–	–	-27.2
CCOC(=O)c1ccc(-n2c(-c3ccco3)nc3ccccc3c2=O)cc1	–	2.91 µM [rising, partial curve]	-9.15
CCOC(=O)N1CCC(NC(=O)Cn2nc(-c3ccccc3)ccc2=O)CC1	–	6.51 µM [falling, single point]	7.75
CC(C)OC(=O)c1c(-c2ccc(C(C)C)cc2)csc1NC(=O)C1CCCO1 (stereo not given)	9.2 µM [falling, partial curve, poor fit]	0.0517 µM [falling, full curve, poor fit]	-39.9
CCOC(=O)N1CCN(C(=O)C2CCN(S(=O)(=O)c3ccc(Br)s3)CC2)CC1	3.66 µM [rising, single point]	–	21.4
C=CCN1C(=O)SC(Cc2cccc(OC)c2O)C1=O (stereo not given)	0.00411 µM [rising, full curve, poor fit]	–	33.7
CC(C)Sc1n[nH]c(=O)n1-c1ccccc1	–	3.66 µM [falling, single point]	-9.13
CCCCC(CCC(=O)Nc1cc([N+](=O)[O-])ccc1O)C(=O)O (stereo not given)	–	–	26.2
Cc1[nH]c(=O)c(S(=O)(=O)c2ccccc2)c(C)c1Cl	2.31 µM [falling, partial curve]	–	-7.75
COc1ccccc1OCC(O)Cn1c(=N)n(Cc2ccccc2)c2ccccc21 (stereo not given)	3.66 µM [falling, full curve]	29.1 µM [falling, single point]	-76.1
CCO[C@H]1OC(C(=O)N2CCN(Cc3ccc4c(c3)OCO4)CC2)=C[C@@H](C2CCCCC2)[C@@H]1CCCO	–	32.6 µM [falling, single point]	-20.6
COc1ccc(CNC(=O)CCS(=O)(=O)Cc2cccc(Cl)c2)c(OC)c1	–	6.51 µM [rising, single point]	-7.44

SMILES	AC50 [1]	AC50 [2]	cell number change [%]
CC(C)(C)OC(=O)N1CCC(CC2CC(c3ccc(Cl)cc3)=NO2)(C(=O)NCC2CCCCC2)CC1 (stereo not given)	2.06 µM [rising, partial curve, poor fit]	3.66 µM [falling, full curve]	39.8
O=C(CCC(=O)c1ccc(F)cc1)Nc1cc(Cl)cc(Cl)c1	0.259 µM [rising, full curve]	–	31.9
O=C(O)c1ccc(CSc2nnc(-c3ccccc3)n2-c2ccccc2)cc1	7.31 µM [falling, partial curve, poor fit]	6.51 µM [falling, full curve, poor fit]	-35.9
O=[N+]([O-])c1ccc(/C=N/n2c(C3CCCCC3)n[nH]c2=S)cc1	0.82 µM [rising, full curve]	0.103 µM [falling, full curve, poor fit]	-0.297
Cc1cc(/C=C2\SC(=S)NC2=O)c(C)n1-c1ccc(O)cc1	–	0.092 µM [rising, full curve, poor fit]	9.99
Cc1ccc2nc(NC(=O)c3ccc4ncsc4c3)sc2c1	16.4 µM [falling, single point]	18.4 µM [falling, single point]	-50.8
O=C(N/N=C/c1ccc2cccc(OCc3ccccc3)c2n1)c1ccc(Cl)cc1	0.58 µM [rising, full curve]	–	–
COc1ccc(CCNC(=O)c2cccc(S(=O)(=O)N3CCCCC3)c2)cc1	0.00461 µM [rising, full curve, poor fit]	0.00461 µM [rising, full curve, poor fit]	19.4
COc1ccc(C(=O)C[n+]2cccc3cc(OC)ccc32)cc1	2.59 µM [rising, partial curve, poor fit]	–	–
N#Cc1ccc[n+](CC(=O)c2ccc(Cl)cc2)c1	–	–	-0.552
Cc1ccc(C)c(OCCCC(=O)Nc2ccc(N3CCOCC3)cc2)c1	20.6 µM [rising, single point]	–	105
COc1cccc(OC)c1C(=O)Nc1ccc([N+](=O)[O-])cn1	2.91 µM [rising, single point]	–	-8.76
Cc1c(C(=O)N2CCN(C(=O)c3ccco3)CC2)sc2nc(-c3ccc(F)cc3)cn12	0.651 µM [rising, full curve]	–	–
Cc1ccc(OCC(=O)N2CCC(N3CC(C)CC(C)C3)CC2)cc1 (stereo not given)	–	0.092 µM [rising, full curve, poor fit]	19.1
O=C(COc1ccccc1[N+](=O)[O-])Nc1cccc(Cl)c1N1CCOCC1	23.1 µM [falling, single point]	14.6 µM [falling, partial curve, poor fit]	-31
CC(=O)c1cc(CN2CCC(n3nccc3NC(=O)c3ccccc3)CC2)cs1	–	4.11 µM [rising, single point]	–
Cc1nnc(NC(=O)c2cc(-c3ccncc3)nc3c(C)cccc23)s1	–	6.51 µM [falling, single point]	23.8
CCN(CC)CCNc1ccc2nnc(CCNS(=O)(=O)c3ccc(C)cc3)n2n1	–	0.146 µM [falling, full curve, poor fit]	-10.3
O=C(Nc1cccc(-c2nnc(-c3ccco3)o2)c1)C(c1ccccc1)c1ccccc1	13 µM [rising, partial curve]	–	108
COc1ccc(OC)c(NC(=O)CSc2sc3c(O)cc(=O)[nH]c3c2C#N)c1	–	–	8.97

15 entries from above, reformatted.
SMILES | AC50 [1] | AC50 [2] | cell number change [%]
CC(C)(C)OC(=O)N1CCC(CC2CC(c3ccc(Cl)cc3)=NO2)(C(=O)NCC2CCCCC2)CC1 (stereo not given) | 2.06 µM [rising, partial curve, poor fit] | 3.66 µM [falling, full curve] | 39.8
O=C(CCC(=O)c1ccc(F)cc1)Nc1cc(Cl)cc(Cl)c1 | 0.259 µM [rising, full curve] | – | 31.9
O=[N+]([O-])c1ccc(/C=N/n2c(C3CCCCC3)n[nH]c2=S)cc1 | 0.82 µM [rising, full curve] | 0.103 µM [falling, full curve, poor fit] | -0.297
Cc1cc(/C=C2\SC(=S)NC2=O)c(C)n1-c1ccc(O)cc1 | – | 0.092 µM [rising, full curve, poor fit] | 9.99
Cc1ccc2nc(NC(=O)c3ccc4ncsc4c3)sc2c1 | 16.4 µM [falling, single point] | 18.4 µM [falling, single point] | -50.8
O=C(N/N=C/c1ccc2cccc(OCc3ccccc3)c2n1)c1ccc(Cl)cc1 | 0.58 µM [rising, full curve] | – | –
COc1ccc(CCNC(=O)c2cccc(S(=O)(=O)N3CCCCC3)c2)cc1 | 0.00461 µM [rising, full curve, poor fit] | 0.00461 µM [rising, full curve, poor fit] | 19.4
COc1ccc(C(=O)C[n+]2cccc3cc(OC)ccc32)cc1 | 2.59 µM [rising, partial curve, poor fit] | – | –
N#Cc1ccc[n+](CC(=O)c2ccc(Cl)cc2)c1 | – | – | -0.552
Cc1ccc(C)c(OCCCC(=O)Nc2ccc(N3CCOCC3)cc2)c1 | 20.6 µM [rising, single point] | – | 105
COc1cccc(OC)c1C(=O)Nc1ccc([N+](=O)[O-])cn1 | 2.91 µM [rising, single point] | – | -8.76
O=C(COc1ccccc1[N+](=O)[O-])Nc1cccc(Cl)c1N1CCOCC1 | 23.1 µM [falling, single point] | 14.6 µM [falling, partial curve, poor fit] | -31
CC(=O)c1cc(CN2CCC(n3nccc3NC(=O)c3ccccc3)CC2)cs1 | – | 4.11 µM [rising, single point] | –
CCN(CC)CCNc1ccc2nnc(CCNS(=O)(=O)c3ccc(C)cc3)n2n1 | – | 0.146 µM [falling, full curve, poor fit] | -10.3
O=C(Nc1cccc(-c2nnc(-c3ccco3)o2)c1)C(c1ccccc1)c1ccccc1 | 13 µM [rising, partial curve] | – | 108

The results go on.

SMILES	AC50 [1]	AC50 [2]	cell number change [%]
O=CN1N=C(c2ccccc2)CC1c1ccccc1[N+](=O)[O-] (stereo not given)	0.164 µM [falling, full curve, poor fit]	3.66 µM [rising, full curve, poor fit]	-50.7
O=C(Nc1ccc(N2CCN(C(=O)c3ccco3)CC2)cc1)c1ccc([N+](=O)[O-])cc1Cl	–	1.16 µM [rising, partial curve]	-12.2
Cc1ccc(CNC(=O)C2CCN(S(=O)(=O)N3CC(C)CC(C)C3)CC2)cc1 (stereo not given)	–	0.116 µM [falling, single point]	–
O=C(O)c1cc(C2CC2)nc2ccccc12	0.731 µM [rising, full curve, poor fit]	0.651 µM [rising, full curve, poor fit]	34.1
COc1ccc(OCCC(=O)c2ccc(OC)cc2)cc1	–	–	12.4
Cc1c(C(=O)N2CCc3ccccc3C2)oc2ccc(S(=O)(=O)N3CCCCCC3)cc12	–	3.26 µM [rising, full curve]	24.6
Cc1csc(=O)n1CCC(=O)OCC(=O)NCc1ccc(Cl)cc1Cl	–	–	-5
CC(=O)Oc1ccc(C)cc1N1C(=O)c2ccc(C(=O)O)cc2C1=O	–	0.731 µM [rising, partial curve, poor fit]	18.1
O=C(CCS(=O)(=O)c1cccs1)Nc1ccc(C(=O)NC2CCN(Cc3ccccc3)CC2)cc1	2.31 µM [falling, partial curve, poor fit]	6.51 µM [falling, single point]	-21.7
Cc1ccccc1Oc1ncnc2oc(-c3ccccc3)cc12	29.1 µM [rising, single point]	6.51 µM [rising, single point]	46.3
CCCc1cc(=O)oc2cc(OCC(=O)Nc3cc(C)on3)ccc12	–	32.6 µM [rising, single point]	15.5
NC(=O)C1CCN(C(=O)c2cnn(-c3ccccc3)c2NC(=O)c2ccco2)CC1	–	–	18.9
O=C(O)CC(CNS(=O)(=O)c1cccc2nsnc12)c1ccccc1 (stereo not given)	–	29.1 µM [falling, single point]	-26
CC(=O)Nc1ccc(S(=O)(=O)N2CCC(C(=O)NCCC(=O)Nc3ccccc3)CC2)cc1	–	–	-4.89
NC1=NC(c2ccccc2C(F)(F)F)N(c2ccc(F)c(Cl)c2)C(N)=N1 (stereo not given)	–	–	-17
COc1ccc(/C=C/C(=O)N2CCC(C(N)=O)CC2)cc1S(=O)(=O)N1CCOCC1	29.1 µM [falling, single point]	29.1 µM [falling, single point]	-106
O=C(O)C1CCCCC1C(=O)NCCc1c[nH]c2ccccc12 (stereo not given)	23.1 µM [falling, partial curve, poor fit]	–	-74.1
CCCc1nn2c(=O)cc(CSCC(=O)Nc3ccccc3OC)nc2s1	–	–	-22.1
